Among the data in publication PMC7600800 are binding values, retold here.

Sequences of proteins named here, by UniProt entry; tags and fusion partners are left off. A change or cut given only in a name is not applied to a line headed by its entry.
UniProt P46527: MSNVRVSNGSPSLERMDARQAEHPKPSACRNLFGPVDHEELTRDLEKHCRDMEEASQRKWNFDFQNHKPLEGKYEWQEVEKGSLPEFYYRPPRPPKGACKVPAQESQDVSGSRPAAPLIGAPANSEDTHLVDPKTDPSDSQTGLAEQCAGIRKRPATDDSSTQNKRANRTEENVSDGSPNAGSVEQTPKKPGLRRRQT
UniProt P06748: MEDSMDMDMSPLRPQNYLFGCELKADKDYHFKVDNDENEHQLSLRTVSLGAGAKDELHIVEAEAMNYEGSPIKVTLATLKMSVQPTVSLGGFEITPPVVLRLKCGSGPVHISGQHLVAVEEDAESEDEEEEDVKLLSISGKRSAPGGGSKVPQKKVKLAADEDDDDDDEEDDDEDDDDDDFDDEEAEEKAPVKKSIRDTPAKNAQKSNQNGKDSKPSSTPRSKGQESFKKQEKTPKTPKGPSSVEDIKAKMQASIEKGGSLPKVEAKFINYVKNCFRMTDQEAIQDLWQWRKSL
UniProt Q61937: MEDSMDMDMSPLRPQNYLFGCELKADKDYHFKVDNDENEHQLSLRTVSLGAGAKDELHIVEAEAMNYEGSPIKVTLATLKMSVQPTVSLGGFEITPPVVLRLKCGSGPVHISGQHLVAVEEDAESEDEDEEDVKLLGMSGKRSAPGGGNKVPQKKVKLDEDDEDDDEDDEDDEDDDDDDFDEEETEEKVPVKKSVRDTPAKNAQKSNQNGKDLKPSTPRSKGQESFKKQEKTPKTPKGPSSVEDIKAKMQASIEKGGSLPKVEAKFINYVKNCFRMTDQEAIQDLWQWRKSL

Results are given in words; binding and its absence hold for the method and conditions named. For some of these results: In cells and extracts the contact can be indirect. Some entries that bind do so weakly or less than the wild type.

Assay [1] has as its target p27 RXL mutant, yeast two-hybrid bait (human) (UniProt P46527). Briefly: two-hybrid; p27 baits in pGBTK (PJ69-4Aα), preys in pGAD424 (PJ69-4A), mated, spotted onto selection plates, 5 days.
Assay [2] deals with p27 wild type, yeast two-hybrid bait (human) (UniProt P46527). Described as above.
Assay [3] deals with Dox-inducible p27 (human p27 cDNA, Tet-on) (human) (UniProt P46527). Briefly: co-IP; lysates (RIPA buffer) of NIH/3T3, U-2 OS and HT1080 cells carrying Dox-inducible p27, 10 µg/mL Dox 24 h; anti-p27 (C-19) immunoprecipitation, Western blot for NPM1; control rabbit IgG. (In western blotting, separated proteins are transferred to a membrane and probed.)

Turning to “nucleophosmin isoform 1 (NPM1), yeast two-hybrid prey (from UniProt P06748 1-294)”, the figures for the binding entry in assay [1] and in assay [2] were “no binding” and “binds”, respectively.

On to “NPM1, endogenous mouse (from UniProt Q61937 1-292)”, for which the binding entry in assay [3] is given as “binds”.

On to “nucleophosmin isoform 1 (NPM1), endogenous human (from UniProt P06748 1-294)”, for which the binding entry in assay [3] was “binds”.
